Data as given in PubChem BioAssay AID1159600 (NIAID, 2016)
The whole screen tested 756 reagents; shown is a random part of them. 134 of them (18%) were called active. 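Active includes both reduced and increased reporter signal, though most active siRNAs reduce it; R848 dose unknown.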 Not given: the amount of reagent.

Screen: 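How human macrophage-like cells depend on pathway genes for TLR7/8 agonist response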 (primary screen)
Cell system: human THP-1 TNF reporter clone B5, made macrophage-like with PMA
Reagent: single siRNA against human genes
Timing: 4 h ligand stimulation, assayed 48 to 72 h after siRNA transfection
Treatment: R848 (TLR7/8 agonist) for 4 hours before lysis; dose not given
Read-out: 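Robust z-score of firefly over renilla TNF promoter signal after 4 h R848, plate median/MAD normalised, relative to negative controls, averaged across replicates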
Direction: TNF reporter z-score: higher = stronger TNF promoter reporter signal after R848
Rule for the call: 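Active where mean z-score is about 1.5 or more from zero in either direction; depositor grades use cut-offs of 1, 1.5, 2 and 2.5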
Meaning of the calls: active = strong change in TNF reporter (up or down); inactive = little change

TNF reporter z-score | call | target gene | PubChem SID
0.989 | inactive | ARF6 | SID303070522
0.0558 | inactive | ARF6 | SID303070523
0.04 | inactive | ARF6 | SID303070524
-1.36 | inactive | ARF6 | SID303070525
0.573 | inactive | ARF6 | SID303070526
0.258 | inactive | ARF6 | SID303070527
-2.18 | active | MAP3K7 | SID303070588
-4.23 | active | MAP3K7 | SID303070589
-4.54 | active | MAP3K7 | SID303070590
-2.02 | active | MAP3K7 | SID303070591
-2.75 | active | MAP3K7 | SID303070592
-1.68 | active | MAP3K7 | SID303070593
2.21 | active | TAB2 | SID303070600
-1.16 | inactive | TAB2 | SID303070601
-1.99 | active | TAB2 | SID303070602
-2.08 | active | TAB2 | SID303070603
-2.9 | active | TAB2 | SID303070604
-1.99 | active | TAB2 | SID303070605
-0.325 | inactive | CD14 | SID303070504
-0.446 | inactive | CD14 | SID303070505
1.85 | active | CD14 | SID303070506
-2.07 | active | CD14 | SID303070507
1.5 | inactive | CD14 | SID303070508
0.0398 | inactive | CD14 | SID303070509
-0.729 | inactive | DAB2IP | SID303071170
-1.68 | active | DAB2IP | SID303071171
0.878 | inactive | DAB2IP | SID303071172
-1.15 | inactive | DAB2IP | SID303071173
-1.25 | inactive | DAB2IP | SID303071174
-0.393 | inactive | DAB2IP | SID303071175
-0.0727 | inactive | BTK | SID303070858
-0.682 | inactive | BTK | SID303070859
-0.365 | inactive | BTK | SID303070860
-0.455 | inactive | BTK | SID303070861
-0.592 | inactive | BTK | SID303070862
-0.66 | inactive | BTK | SID303070863
-0.551 | inactive | MAP2K4 | SID303070744
-1.75 | active | MAP2K4 | SID303070745
0.0873 | inactive | MAP2K4 | SID303070746
0.615 | inactive | MAP2K4 | SID303070747
-0.562 | inactive | MAP2K4 | SID303070748
-0.00607 | inactive | MAP2K4 | SID303070749
-2.49 | active | ATF7 | SID303071020
-0.187 | inactive | ATF7 | SID303071021
-2.39 | active | ATF7 | SID303071022
-1.46 | inactive | ATF7 | SID303071023
-0.297 | inactive | ATF7 | SID303071024
-1.19 | inactive | ATF7 | SID303071025

In a second layout: results already given
BTK [SID303070862]: TNF reporter z-score = -0.592; call = inactive
BTK [SID303070863]: TNF reporter z-score = -0.66; call = inactive
MAP2K4 [SID303070744]: TNF reporter z-score = -0.551; call = inactive
MAP2K4 [SID303070745]: TNF reporter z-score = -1.75; call = active
MAP2K4 [SID303070746]: TNF reporter z-score = 0.0873; call = inactive
MAP2K4 [SID303070747]: TNF reporter z-score = 0.615; call = inactive
MAP2K4 [SID303070748]: TNF reporter z-score = -0.562; call = inactive

The listing continues:
TNF reporter z-score | call | target gene | PubChem SID
-0.431 | inactive | MAPK11 | SID303070732
-0.734 | inactive | MAPK11 | SID303070733
-1.3 | inactive | MAPK11 | SID303070734
-0.364 | inactive | MAPK11 | SID303070735
-0.455 | inactive | MAPK11 | SID303070736
-0.126 | inactive | MAPK11 | SID303070737
-0.887 | inactive | TLR9 | SID303070486
-0.0696 | inactive | TLR9 | SID303070487
-0.207 | inactive | TLR9 | SID303070488
0.664 | inactive | TLR9 | SID303070489
-0.548 | inactive | TLR9 | SID303070490
0.804 | inactive | TLR9 | SID303070491
-0.793 | inactive | ELK1 | SID303070984
-2.26 | active | ELK1 | SID303070985
-1.26 | inactive | ELK1 | SID303070986
-0.566 | inactive | ELK1 | SID303070987
-0.948 | inactive | ELK1 | SID303070988
0.351 | inactive | ELK1 | SID303070989
1.34 | inactive | TLR2 | SID303070444
0.415 | inactive | TLR2 | SID303070445
-1.62 | active | TLR2 | SID303070446
1.28 | inactive | TLR2 | SID303070447
-0.676 | inactive | TLR2 | SID303070448
0.319 | inactive | TLR2 | SID303070449
-2.56 | active | IFNAR2 | SID303071056
-1.35 | inactive | IFNAR2 | SID303071057
0.0107 | inactive | IFNAR2 | SID303071058
-1.29 | inactive | IFNAR2 | SID303071059
0.0754 | inactive | IFNAR2 | SID303071060
-0.316 | inactive | IFNAR2 | SID303071061
-1.51 | active | PIK3CD | SID303070900
-0.325 | inactive | PIK3CD | SID303070901
0.421 | inactive | PIK3CD | SID303070902
-1.1 | inactive | PIK3CD | SID303070903
0.704 | inactive | PIK3CD | SID303070904
-1.33 | inactive | PIK3CD | SID303070905
-0.0113 | inactive | TLR5 | SID303070462
-0.318 | inactive | TLR5 | SID303070463
0.146 | inactive | TLR5 | SID303070464
-0.238 | inactive | TLR5 | SID303070465
-0.666 | inactive | TLR5 | SID303070466
-0.729 | inactive | TLR5 | SID303070467
-0.972 | inactive | RIPK1 | SID303070798
0.0756 | inactive | RIPK1 | SID303070799
0.534 | inactive | RIPK1 | SID303070800
-0.979 | inactive | RIPK1 | SID303070801
-0.694 | inactive | RIPK1 | SID303070802
-1.13 | inactive | RIPK1 | SID303070803
-1.73 | active | AKT2 | SID303070876
-0.285 | inactive | AKT2 | SID303070877
-0.582 | inactive | AKT2 | SID303070878
-1.62 | active | AKT2 | SID303070879
1.02 | inactive | AKT2 | SID303070880
1.57 | active | AKT2 | SID303070881
0.224 | inactive | CREBBP | SID303071026
-0.0727 | inactive | CREBBP | SID303071027
-0.317 | inactive | CREBBP | SID303071028
1.52 | active | CREBBP | SID303071029
-1.12 | inactive | CREBBP | SID303071030
-1.3 | inactive | CREBBP | SID303071031
-1.46 | inactive | TICAM1 | SID303070786
0.119 | inactive | TICAM1 | SID303070787
1.23 | inactive | TICAM1 | SID303070788
-1.47 | inactive | TICAM1 | SID303070789
0.442 | inactive | TICAM1 | SID303070790
0.354 | inactive | TICAM1 | SID303070791
